± gives the standard deviation of the averaged measurements. The full ranking holds about 1,600 compounds; the median of “normalized intracellular growth (luminescence, IQM-normalized) in RAW264.7 macrophages” is about 1, and the lowest 2% start at about 0.43. This is one part of the list.

For this assay, the system named is Salmonella enterica serovar Typhimurium SL1344. The assay is described as follows: normalized intracellular growth (luminescence, IQM-normalized) in RAW264.7 macrophages (fraction of plate interquartile mean); higher = more bacterial growth (less inhibition). Particulars: 10 µM.

For the compound `CC(C)CC(N)=O`, the normalized intracellular growth (time point: T3 (3 h)) was 1.05 ± 0.021 and the normalized intracellular growth (time point: Tfinal (~6 h)) was 1.11 ± 0.057.
For `COc1c2occc2cc2ccc(=O)oc12` the same measures were 1.15 ± 0.034 and 1.36 ± 0.076.
Take `N=C(NCCCCCCNC(=N)NC(=N)Nc1ccc(Cl)cc1)NC(=N)Nc1ccc(Cl)cc1`: the normalized intracellular growth was found to be 0.912 ± 0.078 (time point: T3 (3 h)) and 1.15 ± 0.014 (time point: Tfinal (~6 h)).
As for `NCc1ccccc1CC(=O)N[C@@H]1C(=O)N2C(C(=O)O)=C(CSc3nnnn3CC(=O)O)CS[C@H]12`, the normalized intracellular growth is 0.965 ± 0.061 (time point: T3 (3 h)) and 1.16 ± 0.11 (time point: Tfinal (~6 h)).
For `C[N+]1(C)CCC(OC(=O)C(O)(c2ccccc2)C2CCCC2)C1` (configuration not stated) the same measures were 1.03 ± 0.078 and 0.874 ± 0.059.
In the case of `N#Cc1ccc(C(c2ccc(C#N)cc2)n2cncn2)cc1`, the normalized intracellular growth reads like this: (time point: T3 (3 h)) 1.04 ± 0.026; (time point: Tfinal (~6 h)) 1.17 ± 0.092.
In turn, `Clc1ccc(CCC(Cn2ccnc2)Sc2c(Cl)cccc2Cl)cc1` (configuration not stated) returned a normalized intracellular growth (time point: T3 (3 h)) of 1.01 ± 0.027 and a normalized intracellular growth (time point: Tfinal (~6 h)) of 1.04 ± 0.21.
For `O=C(O)Cc1ccc(-c2ccccc2)cc1`, the normalized intracellular growth by setting is: (time point: T3 (3 h)) 1.03 ± 0.063; (time point: Tfinal (~6 h)) 1.03 ± 0.083.
On to `C[C@@H]1C[C@H]2[C@@H]3C[C@H](F)C4=CC(=O)C=C[C@]4(C)[C@@]3(F)[C@@H](O)C[C@]2(C)[C@@]1(O)C(=O)CO`, for which the normalized intracellular growth by setting is: (time point: T3 (3 h)) 1.01 ± 0.032; (time point: Tfinal (~6 h)) 0.896 ± 0.019.
In the case of `O=C(O)c1cn(-c2ccc(F)cc2)c2cc(N3CCNCC3)c(F)cc2c1=O`, the normalized intracellular growth reads like this: (time point: T3 (3 h)) 1.1 ± 0.081; (time point: Tfinal (~6 h)) 0.00781 ± 0.0016.
The compound `CC(=O)OCC(=O)[C@@]1(O)[C@@H](C)C[C@H]2[C@@H]3CCC4=CC(=O)C=C[C@]4(C)[C@@]3(F)[C@@H](O)C[C@@]21C` showed a normalized intracellular growth (time point: T3 (3 h)) of 0.969 ± 0.035 and a normalized intracellular growth (time point: Tfinal (~6 h)) of 1.1 ± 0.07.
Turning to `O=C1c2c(O)cccc2Cc2cccc(O)c21`, the normalized intracellular growth is, setting by setting: (time point: T3 (3 h)) 0.966 ± 0.032; (time point: Tfinal (~6 h)) 0.963 ± 0.019.
Consider `CO[C@H]1C[C@H](O[C@H]2[C@H](C)O[C@@H](O[C@@H]3/C(C)=C/C[C@@H]4C[C@@H](C[C@]5(C=C[C@H](C)[C@@H](C6CCCCC6)O5)O4)OC(=O)[C@@H]4C=C(C)[C@@H](O)[C@H]5OC/C(=C\C=C\[C@@H]3C)[C@]54O)C[C@@H]2OC)O[C@@H](C)[C@@H]1O`, for which the normalized intracellular growth reads like this: (time point: T3 (3 h)) 1.02 ± 0.048; (time point: Tfinal (~6 h)) 1.08 ± 0.21.
For `CC[N+](C)(CC)CCOC(=O)C(O)(c1ccccc1)C1CCCCC1` (configuration not stated), the normalized intracellular growth reads like this: (time point: T3 (3 h)) 1.03 ± 0.018; (time point: Tfinal (~6 h)) 1.24 ± 0.038.
`CN(C)CCCN1c2ccccc2Sc2ccc(C(F)(F)F)cc21`: the normalized intracellular growth came to 1 ± 0.051 (time point: T3 (3 h)) and 0.863 ± 0.037 (time point: Tfinal (~6 h)).
For `Oc1cc(O)c2c(c1)O[C@H](c1ccc(O)c(O)c1)[C@@H](O)C2`, in that order: 0.972 ± 0.0031 and 0.928 ± 0.12.
For `CC(=O)Oc1ccccc1C(=O)Nc1ncc([N+](=O)[O-])s1`, in that order: 1.14 ± 0.035 and 0.583 ± 0.019.
For `CC1(C)OC(=O)C(OCC2CC2)=C1c1ccc(S(C)(=O)=O)cc1` the same measures were 1.15 ± 0.017 and 1.2 ± 0.13.
On to `CC(N/C(=N\C#N)Nc1ccncc1)C(C)(C)C` (configuration not stated), for which the normalized intracellular growth is, setting by setting: (time point: T3 (3 h)) 1.03 ± 0.025; (time point: Tfinal (~6 h)) 0.996 ± 0.11.
As for `CCCCC(O)c1ccccc1` (configuration not stated), the normalized intracellular growth runs as follows: (time point: T3 (3 h)) 1.08 ± 0.03; (time point: Tfinal (~6 h)) 0.991 ± 0.18.
In the case of `CCCCOCCOCCOCc1cc2c(cc1CCC)OCO2`, the normalized intracellular growth by setting is: (time point: T3 (3 h)) 0.982 ± 0.015; (time point: Tfinal (~6 h)) 1.1 ± 0.014.
`CCN(CC)CCOC(=O)C1(C2CCCCC2)CCCCC1` had a normalized intracellular growth (time point: T3 (3 h)) of 0.991 ± 0.038 and a normalized intracellular growth (time point: Tfinal (~6 h)) of 1.13 ± 0.077.
Regarding `C=CC(N)CCC(=O)O` (configuration not stated), the normalized intracellular growth came to 0.987 ± 0.057 (time point: T3 (3 h)) and 0.981 ± 0.23 (time point: Tfinal (~6 h)).
In the case of `CCCCCCCCCCCCCCCC(=O)OC/C=C(C)/C=C/C=C(C)/C=C/C1=C(C)CCCC1(C)C`, the normalized intracellular growth is, setting by setting: (time point: T3 (3 h)) 0.959 ± 0.082; (time point: Tfinal (~6 h)) 1.19 ± 0.14.
On to `NS(=O)(=O)c1cc(C2(O)NC(=O)c3ccccc32)ccc1Cl` (configuration not stated), for which the normalized intracellular growth was 0.921 ± 0.076 (time point: T3 (3 h)) and 0.987 ± 0.17 (time point: Tfinal (~6 h)).
For `CCN[C@H]1CN(CCCOC)S(=O)(=O)c2sc(S(N)(=O)=O)cc21`, in that order: 1.02 ± 0.012 and 1.22 ± 0.23.
For `CC(C)c1c(C(=O)Nc2ccccc2)c(-c2ccccc2)c(-c2ccc(F)cc2)n1CC[C@@H](O)C[C@@H](O)CC(=O)O` the same measures were 1.08 ± 0.051 and 0.942 ± 0.072.
Turning to `CC(=O)OCC(=O)[C@@]1(O)CC[C@H]2[C@@H]3CCC4=CC(=O)CC[C@]4(C)[C@H]3[C@@H](O)C[C@@]21C`, the normalized intracellular growth (time point: T3 (3 h)) was found to be 0.958 ± 0.025 and the normalized intracellular growth (time point: Tfinal (~6 h)) worked out at 1.05 ± 0.034.
Turning to `O=C(O)CN1C(=O)c2cccc3cccc(c23)C1=O`, the normalized intracellular growth was 0.914 ± 0.099 (time point: T3 (3 h)) and 1.05 ± 0.096 (time point: Tfinal (~6 h)).
Take `FC(F)(F)C(Cl)Br` (configuration not stated): the normalized intracellular growth reads like this: (time point: T3 (3 h)) 1 ± 0.049; (time point: Tfinal (~6 h)) 1.08 ± 0.18.
For `CCCCN(CCCC)CCCOC(=O)c1ccc(N)cc1` the same measures were 1.05 ± 0.083 and 0.945 ± 0.23.
Take `Cc1ccc(C(=O)c2ccc(CC(=O)O)n2C)cc1`: the normalized intracellular growth by setting is: (time point: T3 (3 h)) 0.913 ± 0.056; (time point: Tfinal (~6 h)) 0.953 ± 0.12.
The compound `CC(=O)OCC(=O)[C@@]1(O)CC[C@H]2[C@@H]3CCC4=CC(=O)C=C[C@]4(C)[C@@]3(Cl)[C@@H](Cl)C[C@@]21C` came in with a normalized intracellular growth (time point: T3 (3 h)) of 0.961 ± 0.062 and a normalized intracellular growth (time point: Tfinal (~6 h)) of 1.13 ± 0.022.
Consider `O=C(O)CCCCCCCC(=O)O`, for which the normalized intracellular growth reads like this: (time point: T3 (3 h)) 0.962 ± 0.049; (time point: Tfinal (~6 h)) 0.906 ± 0.051.
For `CC(=O)OCC(=O)[C@@]1(O)CC[C@H]2[C@@H]3CCC4=CC(=O)CC[C@]4(C)[C@@]3(F)[C@@H](O)C[C@@]21C`, in that order: 0.966 ± 0.069 and 0.922 ± 0.076.
In the case of `C[C@@H](O)CN(CCN(C[C@@H](C)O)C[C@@H](C)O)C[C@@H](C)O`, the normalized intracellular growth (time point: T3 (3 h)) is 1.03 ± 0.018 and the normalized intracellular growth (time point: Tfinal (~6 h)) stood at 1.13 ± 0.047.
As for `Cc1cn[nH]c1`, the normalized intracellular growth turned out to be 1.09 ± 0.061 (time point: T3 (3 h)) and 1.01 ± 0.12 (time point: Tfinal (~6 h)).
Turning to `CCCOc1cc(N)ccc1C(=O)OCCN(CC)CC`, the normalized intracellular growth (time point: T3 (3 h)) amounted to 1.05 ± 0.05 and the normalized intracellular growth (time point: Tfinal (~6 h)) was 1.08 ± 0.086.
Take `OC(Cn1cncn1)(Cn1cncn1)c1ccc(F)cc1F`: the normalized intracellular growth reads like this: (time point: T3 (3 h)) 1.07 ± 0.013; (time point: Tfinal (~6 h)) 1.09 ± 0.036.
Consider `NCCc1c[nH]cn1`, for which the normalized intracellular growth (time point: T3 (3 h)) was found to be 1.01 ± 0.083 and the normalized intracellular growth (time point: Tfinal (~6 h)) turned out to be 1.03 ± 0.13.
Turning to `CC[N+](C)(C)c1cccc(O)c1`, the normalized intracellular growth (time point: T3 (3 h)) was determined as 1.02 ± 0.053 and the normalized intracellular growth (time point: Tfinal (~6 h)) is 1.16 ± 0.023.
Take `Nc1[nH]cnc2ncnc1-2`: the normalized intracellular growth runs as follows: (time point: T3 (3 h)) 1.02 ± 0.015; (time point: Tfinal (~6 h)) 0.956 ± 0.02.
With `O.O.O=C([O-])CN(CCN(CC(=O)[O-])CC(=O)O)CC(=O)O.[Na+].[Na+]`, the normalized intracellular growth by setting is: (time point: T3 (3 h)) 0.978 ± 0.021; (time point: Tfinal (~6 h)) 1.02 ± 0.013.
In the case of `CC(=O)[C@@]1(O)CC[C@H]2[C@@H]3C=C(Cl)C4=CC(=O)[C@@H]5C[C@@H]5[C@]4(C)[C@H]3CC[C@@]21C`, the normalized intracellular growth was 1.06 ± 0.049 (time point: T3 (3 h)) and 0.762 ± 0.26 (time point: Tfinal (~6 h)).
Consider `CN1CCC(=C2c3ccccc3C=Cc3ccccc32)CC1`, for which the normalized intracellular growth amounted to 0.67 ± 0.066 (time point: T3 (3 h)) and 0.829 ± 0.031 (time point: Tfinal (~6 h)).
Compound `N=C(N)NC(=N)NCCc1ccccc1` registered a normalized intracellular growth (time point: T3 (3 h)) of 0.992 ± 0.047 and a normalized intracellular growth (time point: Tfinal (~6 h)) of 0.888 ± 0.095.
For `CC(C)(CO)[C@@H](O)C(=O)NCCC(=O)NCCSSCCNC(=O)CCNC(=O)[C@H](O)C(C)(C)CO` the same measures were 0.981 ± 0.048 and 0.976 ± 0.089.
As for `C[C@H]1O[C@H](O[C@H]2[C@H](O)[C@@H](O)[C@@H](O[C@H]3[C@H](O)[C@@H](O)C(O)O[C@@H]3CO)O[C@@H]2CO)[C@H](O)[C@@H](O)[C@@H]1N[C@H]1C=C(CO)[C@@H](O)[C@H](O)[C@H]1O` (some centres not stated), the normalized intracellular growth is, setting by setting: (time point: T3 (3 h)) 0.999 ± 0.083; (time point: Tfinal (~6 h)) 1.33 ± 0.071.
In the case of `CN1CCN(CC/C=C2/c3ccccc3Sc3ccc(S(=O)(=O)N(C)C)cc32)CC1`, the normalized intracellular growth (time point: T3 (3 h)) was found to be 1.14 ± 0.045 and the normalized intracellular growth (time point: Tfinal (~6 h)) was 1.17 ± 0.041.
As for `Cc1nccnc1N1CCCCC1`, the normalized intracellular growth reads like this: (time point: T3 (3 h)) 1.09 ± 0.057; (time point: Tfinal (~6 h)) 0.933 ± 0.023.
For `NNCCc1ccccc1` the same measures were 0.956 ± 0.042 and 0.864 ± 0.26.
Take `CCCc1cc(C(N)=S)ccn1`: the normalized intracellular growth is, setting by setting: (time point: T3 (3 h)) 1.05 ± 0.039; (time point: Tfinal (~6 h)) 0.979 ± 0.13.
On to `CC(=O)S[C@@H]1CC2=CC(=O)CC[C@]2(C)[C@H]2CC[C@@]3(C)[C@@H](CC[C@@]34CCC(=O)O4)[C@H]12`, for which the normalized intracellular growth runs as follows: (time point: T3 (3 h)) 0.97 ± 0.046; (time point: Tfinal (~6 h)) 0.99 ± 0.073.
Compound `CC(Cc1cccc(C(F)(F)F)c1)NCCOC(=O)c1ccccc1` (configuration not stated) yielded a normalized intracellular growth (time point: T3 (3 h)) of 1.01 ± 0.019 and a normalized intracellular growth (time point: Tfinal (~6 h)) of 1.09 ± 0.23.
Regarding `O=C1OCCN1/N=C/c1ccc([N+](=O)[O-])o1`, the normalized intracellular growth by setting is: (time point: T3 (3 h)) 0.945 ± 0.017; (time point: Tfinal (~6 h)) 0.928 ± 0.024.
Consider `NC(=O)c1ccc([N+](=O)[O-])cc1Cl`, for which the normalized intracellular growth amounted to 1.06 ± 0.052 (time point: T3 (3 h)) and 1.18 ± 0.017 (time point: Tfinal (~6 h)).

The values are drawn from the supplement of paper PMC6331611.
